Reference: US4038222A (Hoffman-La Roche Inc., priority 1976, dated 1977)
Some peptides are written in HELM: one residue between dots, names in brackets for other building blocks, links after the first $.

Test: general procedure: Boc solid-phase peptide synthesis; benzhydrylamine polystyrene cross-linked with 1 to 2% divinyl benzene; anhydride couplings
Details: whole synthesis, based on the starting resin

PEPTIDE1{Y.G.G.F.M.T.S.E.K.S.Q.T.P.L.V.T.L.F.K.N.A.I.I.K.N.A.H.K.K.G.Q}$$$$V2.0
isolated yield: 19.6% yield
